Screen size: about 390,000 compounds; about 820 (0.21%) were called active. Inconclusive means that the source gave no clear call. Such entries were picked first, then a sample of the others. Calls follow the shape of the dose curve; as a rule, active = well fitted inhibition curve with a large enough effect; inconclusive = small, poorly fitted or top-dose-only effect, or another doubt; inactive = no such curve, though single readings can be large or run the other way. Potencies beside an inconclusive call are fits to weak or partial responses and may not hold up.
Each compound was assayed against Histone acetyltransferase KAT2A (Homo sapiens) (UniProt Q92830) (assay: qHTS Assay for Inhibitors of GCN5L2). Conditions: GCN5L2 HAT assay, ThioGlo1 CoA-SH fluorescence; activity change, negative = inhibition: at 58.9 µM (top of the series) unless noted.
Outline: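 GCN5L2 (20nM final) in 50mM HEPES, 0.1mM EDTA pH 7.5, 0.01% Tween-20 was preincubated 15 min at room temperature with compound, then given ThioGlo1 (50uM), H3(1-25) peptide (75uM) and acetyl-CoA (70uM); CoA-thiol fluorescence (Ex340/Em540) was read at 0 and 20 min.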
% is scaled to controls: 0 for no effect and ±100 for the full control effect; potency is read from the fitted curve at half-maximal effect.

Amino acid sequences for entries named in this document (tags omitted).
UniProt Q92830, whole entry, looked up: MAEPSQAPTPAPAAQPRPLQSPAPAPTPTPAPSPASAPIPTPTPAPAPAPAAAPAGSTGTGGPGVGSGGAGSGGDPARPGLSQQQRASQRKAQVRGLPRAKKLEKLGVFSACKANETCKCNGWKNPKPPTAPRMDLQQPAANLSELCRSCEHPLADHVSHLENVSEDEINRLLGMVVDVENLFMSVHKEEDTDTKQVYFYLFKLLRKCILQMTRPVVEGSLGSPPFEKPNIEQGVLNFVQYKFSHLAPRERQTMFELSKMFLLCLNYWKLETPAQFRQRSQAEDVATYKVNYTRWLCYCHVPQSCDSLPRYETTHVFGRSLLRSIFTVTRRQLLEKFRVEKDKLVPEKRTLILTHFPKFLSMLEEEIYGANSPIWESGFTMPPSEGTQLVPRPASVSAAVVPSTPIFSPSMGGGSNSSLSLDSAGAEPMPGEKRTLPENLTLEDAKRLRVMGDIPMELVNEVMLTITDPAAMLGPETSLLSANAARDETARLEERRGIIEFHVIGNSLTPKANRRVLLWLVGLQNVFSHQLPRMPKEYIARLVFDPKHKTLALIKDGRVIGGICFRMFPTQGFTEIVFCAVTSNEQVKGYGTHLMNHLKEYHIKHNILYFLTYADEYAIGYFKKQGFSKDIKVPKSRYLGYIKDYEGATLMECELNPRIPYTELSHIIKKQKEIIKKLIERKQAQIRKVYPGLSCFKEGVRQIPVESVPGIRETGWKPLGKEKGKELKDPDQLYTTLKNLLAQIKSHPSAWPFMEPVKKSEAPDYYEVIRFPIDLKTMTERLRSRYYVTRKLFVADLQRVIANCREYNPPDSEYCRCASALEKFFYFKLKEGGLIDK

| SMILES | Potency | activity change, negative = inhibition |
| --- | --- | --- |
| CCOc1ccc(OCc2ccc(C(=O)N3CCCC3)o2)cc1 | inconclusive: 10 µM [inhibitor, partial curve] | – |
| COc1ccccc1C(=O)NNC(=O)c1cccc(F)c1 | – | inactive: -3.76% |
| O=[N+]([O-])c1ccc(/C=N/Nc2nc(N3CCCCC3)nc(N3CCCCC3)n2)o1 | – | inactive: -6.93% |
| CC(C)c1ccc(NC2CCCN(C(=O)CN3CCOC3=O)C2)cc1 (stereo not given) | inconclusive: 0.316 µM [inhibitor, full curve, poor fit] | – |
| Cc1ccc(-c2nc(N)s[n+]2-c2ccccc2)cc1 | active: 6.31 µM | – |
| COc1ccc(C2CC(C(F)(F)F)n3ncc(C(=O)Nc4cccc(O)c4)c3N2)cc1OC (stereo not given) | inconclusive: 7.94 µM [inhibitor, single point] | – |
| Cc1cc(C)n(CCCNC(=O)c2cc(COc3ccc(C)c(C)c3)on2)n1 | inconclusive: 39.8 µM [inhibitor, partial curve, poor fit] | – |
| COc1ccc(/C=c2\s/c(=C\C(=O)C(C)(C)C)[nH]c2=O)cc1O | – | inactive: 1.34% |
| N#CC1=C(N)N(c2ccc(F)cc2)C(=O)C1 | inconclusive: 39.8 µM [inhibitor, single point] | – |
| CCCc1oc(C(=O)O)cc1CN1CCOCC1 | – | inconclusive: -105% [inhibitor] [at 0.501 µM] |
| Cc1ccc(C)c(CN2C(=O)c3ccccc3S(=O)c3ccc(C(=O)N4CCCCC4)cc32)c1 (stereo not given) | – | inactive: -1.15% |
| Cc1nn(C)c(C(=O)NNC(=S)NCc2ccco2)c1Br | inconclusive: 39.8 µM [inhibitor, single point] | – |
| COc1ccc(OC)c(/C=C/C(=O)OCC(=O)Nc2nnc(-c3ccccc3)o2)c1 | inconclusive: 39.8 µM [inhibitor, single point] | – |
| O=C(NCCc1ccccc1)Nc1ccc2c(c1)OCO2 | – | inactive: -1.47% |
| O=C(COC(=O)c1ccc([N+](=O)[O-])o1)Nc1ccc(Br)cc1F | – | inactive: -6.27% |
| COc1ccc(NC(=O)/C(C#N)=C\c2ccc(OCc3ccc(C(=O)O)cc3)c(OC)c2)cc1 | inconclusive: 25.1 µM [inhibitor, single point] | – |
| O=C(COC(=O)c1cnccn1)Nc1c(Cl)cc(Cl)cc1Cl | inconclusive: 39.8 µM [inhibitor, single point] | – |
| COc1ccc2c(c1OC)C(=O)NC(C)=C(C(=O)OC(C)(C)C)C2O (stereo not given) | inconclusive: 0.708 µM [inhibitor, full curve, poor fit] | – |
| Cc1ccc(CSc2nc3c(c(=O)[nH]2)C(c2ccncc2)C2=C(CCCC2=O)N3)cc1 (stereo not given) | inconclusive: 39.8 µM [inhibitor, single point] | – |
| CN(C)c1ccc(-c2cncnc2N(C)Cc2ccco2)cc1 | – | inactive: -10.9% |
| Cc1cc(=O)oc2cc(O)ccc12 | inconclusive: 11.2 µM [inhibitor, partial curve] | – |
| COC(=O)c1ccc(C2C(C#N)=C(N)Oc3cc(N)ccc32)cc1 (stereo not given) | – | inactive: -3.01% |
| CNC(=O)c1cc2c(cn1)[nH]c1ccccc12 | – | inactive: -8.69% |
| C=CCn1c(SCn2nnc3ccccc3c2=O)nc2scc(-c3cccs3)c2c1=O | – | inactive: -6.24% |

| SMILES | Potency | activity change, negative = inhibition |
| --- | --- | --- |
| CCOC(=O)c1c(-c2ccccc2)oc2ccc(OCC(O)CNCCN(C)C)cc12 (stereo not given) | inconclusive: 7.94 µM [inhibitor, full curve, poor fit] | – |
| O=C(CSc1ccccc1)NNC(=O)c1ccccc1O | inconclusive: 31.6 µM [inhibitor, single point] | – |
| Cc1ccc(C)c(NC(=O)c2nc(S(=O)(=O)Cc3ccc(F)cc3)ncc2Cl)c1 | – | inactive: -5.2% |
| Cc1cc(Nc2ccc([N+](=O)[O-])cc2)c2ccccc2n1 | inconclusive: 39.8 µM [inhibitor, single point] | – |
| CCOC(=O)c1ccc(-n2c(CCC(=O)O)ccc2-c2ccccc2)cc1O | – | inactive: -2.58% |
| O=C(c1ccco1)N1CCN(c2nc3ccccc3c(=O)n2-c2ccccc2)CC1 | inconclusive: 3.55 µM [inhibitor, partial curve] | – |
| CC(=O)Nc1ccc(NC(=O)C2CC(=O)N(c3ccc(Cl)cc3)C2)cc1 (stereo not given) | inconclusive: 39.8 µM [inhibitor, single point] | – |
| Cc1cccc(C(=O)O/N=C(\N)Cc2ccc([N+](=O)[O-])cc2)c1 | inconclusive: 0.794 µM [inhibitor, single point] | – |
| O=C1[C@@H]2C(Cc3ccc(O)cc3)NC3(C(=O)Nc4ccc(F)cc43)[C@@H]2C(=O)N1c1ccccc1 (stereo not given in full) | – | inactive: -0.816% |
| O=C(SCC(O)C(O)CS)c1cccs1 (stereo not given) | inconclusive: 39.8 µM [inhibitor, single point] | – |
| CCOC(=O)N1CCN(C(=O)C(NC(=O)C2CCC(C)CC2)C(C)C)CC1 (stereo not given) | inconclusive: 39.8 µM [inhibitor, single point] | – |
| CCC(=O)Nc1cccc(NC(=S)NC(=O)Cc2ccccc2)c1 | inconclusive: 0.794 µM [inhibitor, single point] | – |
| CCCCc1cc(=O)oc2cc(C)cc(OCC(=O)N[C@@H](CSCc3ccccc3)C(=O)O)c12 | active: 1.78 µM | – |
| Cc1ccc(NC(=S)NCc2ccc(Cl)cc2)c(OC(F)F)c1 | inconclusive: 39.8 µM [inhibitor, single point] | – |
| O=C(COC(=O)CNC(=O)c1ccc(Cl)cc1Cl)Nc1cccc(S(=O)(=O)N2CCCC2)c1 | inconclusive: 25.1 µM [inhibitor, partial curve] | – |
| COC(=O)/C=C\c1cc(O)ccc1O | inconclusive: 28.2 µM [inhibitor, partial curve] | – |
| O=C(NCc1ccccn1)C(=O)N/N=C/c1ccc2c(c1)OCO2 | inconclusive: 39.8 µM [inhibitor, single point] | – |
| CCSc1nnc(-c2cccnc2)n1-c1ccc(Cl)c(C)c1 | inconclusive: 39.8 µM [inhibitor, single point] | – |
| O=C(CCl)Nc1ccc(-c2ccccc2)cc1 | – | inactive: -3.07% |
| CC(C)(C)C1CCc2nc(NC(=O)c3cccc(Cl)c3)sc2C1 (stereo not given) | – | inactive: -1.6% |
| COc1ccc(-c2nc3cnc(Oc4ccccc4)nc3n(Cc3cccs3)c2=O)cc1 | inconclusive: 25.1 µM [inhibitor, partial curve] | – |
| CC(NC(=O)c1ccc(Cl)cc1)C(=O)NC1=NCCS1 (stereo not given) | inconclusive: 1 µM [inhibitor, partial curve, poor fit] | – |
| COc1cc2c(cc1OC)-c1cc(=Nc3c(C)cc(C)cc3C)n(C)c(=O)n1CC2 | inconclusive: 22.4 µM [inhibitor, single point] | – |
| O=C(O)c1cccc(Nc2ccncc2[N+](=O)[O-])c1 | – | inactive: 2.11% |

| SMILES | Potency | activity change, negative = inhibition |
| --- | --- | --- |
| CCc1ccccc1Nc1nc(N)nc(CSc2nnc3ccccn23)n1 | inconclusive: 0.355 µM [inhibitor, full curve, poor fit] | – |
| CCNC(=O)N1CCN(CCCC(c2ccc(F)cc2)c2ccc(F)cc2)CC1 | inactive | – |
| COc1cc(-c2nnc(COC(=O)c3cc(C)no3)o2)cc(OC)c1OC | inconclusive: 44.7 µM [inhibitor, partial curve, poor fit] | – |
| COc1ccccc1OC(C)C(=O)N(Cc1ccco1)C1CCS(=O)(=O)C1 (stereo not given) | inconclusive: 11.2 µM [inhibitor, partial curve, poor fit] | – |
| CC(=O)n1cc(C(C[N+](=O)[O-])SCCN)c2ccccc21 (stereo not given) | active: 25.1 µM | – |
| COc1ccccc1-c1cc(C(=O)N2CCN(c3ccccc3)CC2)no1 | inactive | – |
| O=C(NNS(=O)(=O)c1ccccc1Cl)C1COc2ccccc2O1 (stereo not given) | – | inactive: -0.187% |
| O=[N+]([O-])c1c(N2CCN(CCO)CC2)nc2ccccn12 | inconclusive: 1 µM [inhibitor, single point] | – |
| CCOc1ccc(C(O)(c2ccccc2OC)C(CN2CCCC2)c2ccccc2)cc1 (stereo not given) | inconclusive: 5.62 µM [inhibitor, single point] | – |
| COc1ccc(C2NC3=C(CCCC3)C(C#N)(C#N)C2(C#N)C#N)cc1 (stereo not given) | – | inactive: -11.3% |
| CCOC(=O)c1c(NC(=S)Nc2cccnc2)sc(C)c1C | inconclusive: 0.708 µM [inhibitor, single point] | – |
| COc1cc(C#Cc2c(-c3cncn3C)n(C)c3ccc(-c4cnc(OC)nc4)cc23)cc(OC)c1 | inconclusive: 25.1 µM [inhibitor, partial curve] | – |
| Cc1ccc(NCc2nnc(SCc3ccc(C#N)cc3)n2Cc2ccco2)c(C)c1 | – | inactive: -3.58% |
| CC(=O)Nc1ccccc1-c1nc2ccccc2n(C(C)C(=O)Nc2cc(Cl)ccc2C)c1=O (stereo not given) | – | inactive: -3.68% |
| O=C(O)CCC(=O)c1ccc2ccc3cccc4ccc1c2c34 | inconclusive: 39.8 µM [inhibitor, single point] | – |
| Cc1c(C=O)c2ccccn2c1C(=O)c1ccc(F)cc1 | inconclusive: 0.126 µM [inhibitor, full curve, poor fit] | – |
| COc1ccc(S(=O)(=O)N2CCCCC2)cc1N(C)S(=O)(=O)c1ccccc1 | inconclusive: 1 µM [inhibitor, full curve, poor fit] | – |
| CC(=O)c1ccc(OCc2cc(C(=O)N3CCC(Oc4ccccc4C)CC3)no2)cc1 | inconclusive: 39.8 µM [inhibitor, single point] | – |
| O=C(c1cc(COc2ccc(F)cc2F)on1)N1CC[C@@H]2CCCC[C@H]2C1 | inconclusive: 2 µM [inhibitor, partial curve] | – |
| O=C(NCCCN1CCOCC1)c1sc2cc([N+](=O)[O-])ccc2c1Cl | inconclusive: 31.6 µM [inhibitor, single point] | – |
| COc1ccccc1-c1cn(-c2ccccc2)c(=S)[nH]1 | inconclusive: 3.16 µM [inhibitor, single point] | – |
| O=C(O)CCC(=O)N1c2ccccc2NC2=C(C(=O)CC(c3ccc(F)cc3)C2)C1c1ccc([N+](=O)[O-])o1 (stereo not given) | – | inactive: -3.38% |

Entries of single compounds, quoted from the list. Values in the order: Potency | activity change, negative = inhibition
CCNC(=O)N1CCN(CCCC(c2ccc(F)cc2)c2ccc(F)cc2)CC1 as listed: inactive | –
COc1cc(C#Cc2c(-c3cncn3C)n(C)c3ccc(-c4cnc(OC)nc4)cc23)cc(OC)c1 as listed: inconclusive: 25.1 µM [inhibitor, partial curve] | –
